From the supplement of paper PMC12823440, “Inhibitors supercharge kinase turnover through native proteolytic circuits” (Nature, 2025)
Counter-ions that a name gives are not always drawn. The list shows a part of the results. The calls rarely recur for the same compound in another form.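 Kinases, fused to nanoluciferase, were expressed in K562 cells; luminescence was measured every 4 h from 2 to 18 h as percent of control (DMSO = 100%, positive control = 0%). A time point is decreased if signal falls significantly (2 sigma). Hits were called by the authors by a rule that is not shown; the count of time points alone does not decide it.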

Protein sequences, listed by entry. Tags and fused reporters are not part of them. Lines headed by an entry give the natural chain unless they say otherwise; changes in a name come on top.
UniProt Q01974, whole entry: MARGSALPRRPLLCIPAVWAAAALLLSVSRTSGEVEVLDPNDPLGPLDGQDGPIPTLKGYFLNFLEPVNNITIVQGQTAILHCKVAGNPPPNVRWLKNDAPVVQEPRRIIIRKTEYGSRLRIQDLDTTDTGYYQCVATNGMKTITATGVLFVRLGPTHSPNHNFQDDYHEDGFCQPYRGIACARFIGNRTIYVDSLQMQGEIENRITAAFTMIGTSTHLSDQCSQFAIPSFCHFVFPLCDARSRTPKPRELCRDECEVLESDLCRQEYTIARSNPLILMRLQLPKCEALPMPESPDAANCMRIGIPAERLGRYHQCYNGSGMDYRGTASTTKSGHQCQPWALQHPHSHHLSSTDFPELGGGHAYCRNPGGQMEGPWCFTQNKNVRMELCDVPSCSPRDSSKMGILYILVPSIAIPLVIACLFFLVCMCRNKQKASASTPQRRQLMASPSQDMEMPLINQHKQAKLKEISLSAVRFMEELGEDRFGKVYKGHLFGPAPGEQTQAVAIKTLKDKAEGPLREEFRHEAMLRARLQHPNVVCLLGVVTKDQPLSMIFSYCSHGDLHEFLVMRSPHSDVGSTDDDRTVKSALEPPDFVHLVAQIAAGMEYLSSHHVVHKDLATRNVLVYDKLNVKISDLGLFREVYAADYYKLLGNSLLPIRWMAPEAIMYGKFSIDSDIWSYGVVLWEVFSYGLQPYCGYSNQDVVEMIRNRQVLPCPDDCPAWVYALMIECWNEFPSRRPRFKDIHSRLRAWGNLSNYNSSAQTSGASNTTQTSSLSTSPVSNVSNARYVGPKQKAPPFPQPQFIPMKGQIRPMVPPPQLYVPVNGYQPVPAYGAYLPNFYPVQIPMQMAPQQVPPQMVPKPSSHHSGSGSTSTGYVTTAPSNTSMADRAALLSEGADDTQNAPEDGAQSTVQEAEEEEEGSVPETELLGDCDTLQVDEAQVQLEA
UniProt Q9NYA1, whole entry: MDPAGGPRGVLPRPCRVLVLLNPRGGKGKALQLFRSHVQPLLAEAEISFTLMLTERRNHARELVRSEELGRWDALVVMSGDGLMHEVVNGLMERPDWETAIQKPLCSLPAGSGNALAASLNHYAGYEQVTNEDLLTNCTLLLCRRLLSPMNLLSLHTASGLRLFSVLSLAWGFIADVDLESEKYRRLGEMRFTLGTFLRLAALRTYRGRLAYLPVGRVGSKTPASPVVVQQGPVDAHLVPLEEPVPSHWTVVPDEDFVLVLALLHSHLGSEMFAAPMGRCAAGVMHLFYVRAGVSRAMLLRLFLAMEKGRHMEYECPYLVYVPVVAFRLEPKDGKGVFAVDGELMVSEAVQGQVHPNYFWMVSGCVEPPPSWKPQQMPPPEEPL
UniProt Q9Y6E0: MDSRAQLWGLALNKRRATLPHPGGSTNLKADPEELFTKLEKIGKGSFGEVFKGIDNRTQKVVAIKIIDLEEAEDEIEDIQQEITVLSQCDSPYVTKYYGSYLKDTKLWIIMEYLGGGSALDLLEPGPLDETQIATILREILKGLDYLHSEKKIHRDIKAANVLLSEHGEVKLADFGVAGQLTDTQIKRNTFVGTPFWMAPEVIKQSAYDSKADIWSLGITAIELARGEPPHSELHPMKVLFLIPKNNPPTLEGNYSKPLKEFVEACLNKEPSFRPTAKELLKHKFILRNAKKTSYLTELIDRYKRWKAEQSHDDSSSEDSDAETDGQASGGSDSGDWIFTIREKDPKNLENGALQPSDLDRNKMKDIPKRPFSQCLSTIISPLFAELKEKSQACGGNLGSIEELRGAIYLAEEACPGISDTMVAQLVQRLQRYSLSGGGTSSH
UniProt Q15208: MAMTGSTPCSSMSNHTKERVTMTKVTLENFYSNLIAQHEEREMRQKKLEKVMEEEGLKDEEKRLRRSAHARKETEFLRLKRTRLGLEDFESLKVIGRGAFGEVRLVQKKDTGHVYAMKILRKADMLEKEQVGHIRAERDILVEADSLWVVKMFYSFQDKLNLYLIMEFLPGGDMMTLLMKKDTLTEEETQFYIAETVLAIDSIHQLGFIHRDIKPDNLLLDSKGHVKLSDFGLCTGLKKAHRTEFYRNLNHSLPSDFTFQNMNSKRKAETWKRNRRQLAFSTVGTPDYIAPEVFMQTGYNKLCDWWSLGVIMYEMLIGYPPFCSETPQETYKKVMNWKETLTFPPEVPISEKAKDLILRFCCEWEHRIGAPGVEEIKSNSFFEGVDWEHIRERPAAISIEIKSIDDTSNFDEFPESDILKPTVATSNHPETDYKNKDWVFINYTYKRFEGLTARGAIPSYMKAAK
UniProt P42680: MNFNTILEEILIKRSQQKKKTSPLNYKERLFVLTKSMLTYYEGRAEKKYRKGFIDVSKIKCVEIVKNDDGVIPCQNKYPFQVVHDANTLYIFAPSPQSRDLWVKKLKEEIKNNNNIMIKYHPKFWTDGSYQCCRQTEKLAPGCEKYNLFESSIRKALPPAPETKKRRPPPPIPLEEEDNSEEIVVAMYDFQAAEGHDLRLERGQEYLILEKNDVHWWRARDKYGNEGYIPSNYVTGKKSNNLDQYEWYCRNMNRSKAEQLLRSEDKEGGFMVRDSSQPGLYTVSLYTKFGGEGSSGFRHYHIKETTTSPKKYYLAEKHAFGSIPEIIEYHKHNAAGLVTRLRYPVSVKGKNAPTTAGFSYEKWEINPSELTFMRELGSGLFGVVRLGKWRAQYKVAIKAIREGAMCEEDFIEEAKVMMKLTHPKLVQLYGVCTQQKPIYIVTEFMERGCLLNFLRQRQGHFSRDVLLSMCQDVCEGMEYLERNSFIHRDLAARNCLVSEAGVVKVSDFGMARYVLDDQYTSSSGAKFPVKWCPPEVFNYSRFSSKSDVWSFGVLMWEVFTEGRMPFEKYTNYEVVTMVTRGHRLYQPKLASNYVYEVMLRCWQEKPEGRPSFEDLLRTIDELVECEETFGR
UniProt P29597: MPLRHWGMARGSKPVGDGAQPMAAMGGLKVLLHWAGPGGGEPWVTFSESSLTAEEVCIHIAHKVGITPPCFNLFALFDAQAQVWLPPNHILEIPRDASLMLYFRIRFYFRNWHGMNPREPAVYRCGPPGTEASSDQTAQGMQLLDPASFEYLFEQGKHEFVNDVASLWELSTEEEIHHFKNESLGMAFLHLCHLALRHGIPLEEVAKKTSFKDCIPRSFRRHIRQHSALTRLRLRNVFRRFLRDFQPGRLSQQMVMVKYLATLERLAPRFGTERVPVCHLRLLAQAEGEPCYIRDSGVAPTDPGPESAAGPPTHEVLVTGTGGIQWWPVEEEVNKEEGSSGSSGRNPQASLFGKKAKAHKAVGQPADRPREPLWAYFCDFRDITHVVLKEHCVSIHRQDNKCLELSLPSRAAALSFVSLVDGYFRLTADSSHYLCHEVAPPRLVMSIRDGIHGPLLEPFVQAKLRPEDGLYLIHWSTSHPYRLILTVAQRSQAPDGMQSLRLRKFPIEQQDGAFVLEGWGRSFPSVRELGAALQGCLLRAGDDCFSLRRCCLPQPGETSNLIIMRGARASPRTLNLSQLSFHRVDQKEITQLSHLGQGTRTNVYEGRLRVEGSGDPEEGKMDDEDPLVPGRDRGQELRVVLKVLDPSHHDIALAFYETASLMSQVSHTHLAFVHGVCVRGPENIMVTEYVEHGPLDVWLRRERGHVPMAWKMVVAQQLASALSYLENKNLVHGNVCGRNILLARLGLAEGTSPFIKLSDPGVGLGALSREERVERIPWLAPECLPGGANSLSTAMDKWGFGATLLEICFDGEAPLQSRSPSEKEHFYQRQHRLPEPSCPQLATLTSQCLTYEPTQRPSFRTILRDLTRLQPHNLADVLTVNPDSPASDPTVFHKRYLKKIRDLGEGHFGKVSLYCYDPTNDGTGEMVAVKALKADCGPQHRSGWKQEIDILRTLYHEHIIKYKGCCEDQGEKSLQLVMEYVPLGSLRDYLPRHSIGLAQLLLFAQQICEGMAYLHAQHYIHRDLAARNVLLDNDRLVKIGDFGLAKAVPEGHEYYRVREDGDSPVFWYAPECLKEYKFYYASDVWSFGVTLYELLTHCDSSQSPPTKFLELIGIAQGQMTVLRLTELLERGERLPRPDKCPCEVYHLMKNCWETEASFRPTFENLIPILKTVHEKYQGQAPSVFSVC
UniProt Q6PHR2: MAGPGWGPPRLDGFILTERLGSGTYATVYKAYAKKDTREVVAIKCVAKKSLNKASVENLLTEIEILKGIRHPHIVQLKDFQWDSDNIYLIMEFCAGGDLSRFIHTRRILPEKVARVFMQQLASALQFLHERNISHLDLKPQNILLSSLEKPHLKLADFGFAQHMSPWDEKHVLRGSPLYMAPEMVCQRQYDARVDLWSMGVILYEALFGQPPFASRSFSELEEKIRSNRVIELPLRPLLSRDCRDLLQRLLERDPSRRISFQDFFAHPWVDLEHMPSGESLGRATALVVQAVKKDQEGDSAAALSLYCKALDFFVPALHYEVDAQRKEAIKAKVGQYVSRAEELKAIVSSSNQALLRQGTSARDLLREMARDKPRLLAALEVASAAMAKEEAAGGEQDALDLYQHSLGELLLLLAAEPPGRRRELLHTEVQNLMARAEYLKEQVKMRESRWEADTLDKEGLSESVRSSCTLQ
UniProt P07947, whole entry, looked up: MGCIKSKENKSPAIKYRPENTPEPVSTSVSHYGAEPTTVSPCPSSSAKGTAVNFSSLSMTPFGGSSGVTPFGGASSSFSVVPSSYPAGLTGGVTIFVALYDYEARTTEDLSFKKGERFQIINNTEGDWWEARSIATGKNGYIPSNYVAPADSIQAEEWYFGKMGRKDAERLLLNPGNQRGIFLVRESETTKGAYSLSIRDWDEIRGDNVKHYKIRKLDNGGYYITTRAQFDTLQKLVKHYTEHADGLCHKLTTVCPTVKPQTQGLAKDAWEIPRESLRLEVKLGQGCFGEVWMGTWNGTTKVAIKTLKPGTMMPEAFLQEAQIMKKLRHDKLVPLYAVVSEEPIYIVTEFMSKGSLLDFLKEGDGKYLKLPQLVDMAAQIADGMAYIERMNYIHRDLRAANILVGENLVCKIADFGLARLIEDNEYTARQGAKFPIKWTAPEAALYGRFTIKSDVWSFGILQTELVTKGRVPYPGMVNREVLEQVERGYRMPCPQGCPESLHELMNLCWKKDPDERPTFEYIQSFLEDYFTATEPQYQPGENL
UniProt P43403: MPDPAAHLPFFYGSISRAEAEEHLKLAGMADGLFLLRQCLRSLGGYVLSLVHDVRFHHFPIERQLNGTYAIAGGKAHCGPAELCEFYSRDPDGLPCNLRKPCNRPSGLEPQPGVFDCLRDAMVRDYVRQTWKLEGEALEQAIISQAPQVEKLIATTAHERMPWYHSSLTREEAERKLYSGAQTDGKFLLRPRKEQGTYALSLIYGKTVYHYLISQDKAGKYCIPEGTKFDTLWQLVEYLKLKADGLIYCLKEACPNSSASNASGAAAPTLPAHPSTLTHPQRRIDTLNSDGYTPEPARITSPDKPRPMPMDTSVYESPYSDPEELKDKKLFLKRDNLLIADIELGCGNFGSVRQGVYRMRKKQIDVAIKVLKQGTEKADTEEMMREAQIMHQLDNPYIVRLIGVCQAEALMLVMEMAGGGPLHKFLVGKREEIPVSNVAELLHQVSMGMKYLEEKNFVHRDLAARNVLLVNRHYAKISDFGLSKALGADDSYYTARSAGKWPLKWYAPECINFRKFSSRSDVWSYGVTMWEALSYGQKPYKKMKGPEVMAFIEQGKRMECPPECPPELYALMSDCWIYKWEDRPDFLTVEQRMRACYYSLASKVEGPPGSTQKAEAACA
UniProt P50613: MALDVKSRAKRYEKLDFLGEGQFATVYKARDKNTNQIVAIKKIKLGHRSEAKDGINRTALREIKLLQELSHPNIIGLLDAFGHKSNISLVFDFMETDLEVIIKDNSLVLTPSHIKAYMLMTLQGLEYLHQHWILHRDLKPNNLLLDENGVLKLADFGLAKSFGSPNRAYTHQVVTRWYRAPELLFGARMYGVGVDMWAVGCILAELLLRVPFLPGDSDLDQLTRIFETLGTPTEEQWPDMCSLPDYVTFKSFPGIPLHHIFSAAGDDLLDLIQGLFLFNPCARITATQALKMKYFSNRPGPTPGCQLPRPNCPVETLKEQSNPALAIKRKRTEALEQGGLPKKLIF
UniProt P50750, whole entry: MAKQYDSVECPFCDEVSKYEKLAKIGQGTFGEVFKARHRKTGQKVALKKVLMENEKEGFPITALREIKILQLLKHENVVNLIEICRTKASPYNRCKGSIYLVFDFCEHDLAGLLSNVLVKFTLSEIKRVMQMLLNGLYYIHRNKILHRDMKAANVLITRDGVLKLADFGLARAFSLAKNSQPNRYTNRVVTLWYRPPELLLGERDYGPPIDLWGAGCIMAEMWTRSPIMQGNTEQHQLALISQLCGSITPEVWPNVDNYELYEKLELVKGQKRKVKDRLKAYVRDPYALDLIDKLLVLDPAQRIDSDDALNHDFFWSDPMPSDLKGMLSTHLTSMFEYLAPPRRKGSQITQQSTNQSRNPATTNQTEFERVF

What was measured:
Conditions in all cases: K562; 2-18 h
ROR2 = ROR2 (UniProt Q01974); test: number of time points (of 5) at which kinase-Nluc abundance scored as decreased, DMSO-normalised (count); higher = more persistent destabilization
RPS6KA1 = RPS6KA1 (UniProt Q15418); test: as above
SPHK1 = SPHK1 (UniProt Q9NYA1); test: as above
SRC = SRC (UniProt P12931); test: as above
STK24 = STK24 (UniProt Q9Y6E0); test: as above
STK38 = STK38 (UniProt Q15208); test: as above
SYK = SYK (UniProt P43405); test: as above
TEC = TEC (UniProt P42680); test: as above
TYK2 = TYK2 (UniProt P29597); test: as above
ULK3 = ULK3 (UniProt Q6PHR2); test: as above
YES1 = YES1 (UniProt P07947); test: as above
ZAK = ZAK (UniProt Q9NYL2); test: as above
ZAP70 = ZAP70 (UniProt P43403); test: as above
CDK4 = CDK4 (UniProt P11802); test: number of time points (of 4; 2 h point missing) at which kinase-Nluc abundance scored as decreased, DMSO-normalised (count); higher = more persistent destabilization
CDK7 = CDK7 (UniProt P50613); test: as above
CDK9 = CDK9 (UniProt P50750); test: as above

Measured: number of time points

O=C(/C=C/c1ccccc1)OC[C@H]1O[C@@H](O[C@@H]2OC=C[C@H]3[C@H](O)[C@@H]4O[C@]4(CO)[C@@H]23)[C@H](O)[C@@H](O)[C@@H]1O [Picroside I] (10 µM)
0: ROR2 | RPS6KA1 | SPHK1 | SRC | STK24 | STK38 | SYK | TEC | TYK2 | ULK3 | YES1 | ZAK | ZAP70 | CDK4 | CDK7 | CDK9

COc1ccc2c(c1)[nH]c1c(C)nccc12 [Harmine] (10 µM)
0: ROR2 | RPS6KA1 | SPHK1 | SRC | STK24 | STK38 | SYK | TEC | TYK2 | ULK3 | YES1 | ZAK | ZAP70 | CDK4 | CDK7 | CDK9

CC(C)=CC[C@@H](OC(=O)CC(C)(C)O)C1=CC(=O)c2c(O)ccc(O)c2C1=O [β-Hydroxyisovalerylshikonin] (2.5 µM)
0: ROR2 | RPS6KA1 | SPHK1 | SRC | STK24 | STK38 | SYK | TEC | TYK2 | ULK3 | YES1 | ZAK | ZAP70 | CDK4 | CDK7 | CDK9

Two successive records out of the list so far, for reference:
O=C(/C=C/c1ccccc1)OC[C@H]1O[C@@H](O[C@@H]2OC=C[C@H]3[C@H](O)[C@@H]4O[C@]4(CO)[C@@H]23)[C@H](O)[C@@H](O)[C@@H]1O [Picroside I] (10 µM)
0: ROR2 | RPS6KA1 | SPHK1 | SRC | STK24 | STK38 | SYK | TEC | TYK2 | ULK3 | YES1 | ZAK | ZAP70 | CDK4 | CDK7 | CDK9

COc1ccc2c(c1)[nH]c1c(C)nccc12 [Harmine] (10 µM)
0: ROR2 | RPS6KA1 | SPHK1 | SRC | STK24 | STK38 | SYK | TEC | TYK2 | ULK3 | YES1 | ZAK | ZAP70 | CDK4 | CDK7 | CDK9

(listing goes on)

CC(=O)Oc1ccc(/C=C/c2cc(OC(C)=O)cc(OC(C)=O)c2)cc1 [Triacetylresveratrol] (10 µM)
0: ROR2 | RPS6KA1 | SPHK1 | SRC | STK24 | STK38 | SYK | TEC | TYK2 | ULK3 | YES1 | ZAK | ZAP70 | CDK4 | CDK7 | CDK9

O=c1[nH]c2ccccc2n1C1CCN(Cc2ccc(-c3[nH]c4cc5ncnc5cc4nc3-c3ccccc3)cc2)CC1 [AKT inhibitor VIII] (2.5 µM)
0: ROR2 | RPS6KA1 | SPHK1 | SRC | STK24 | STK38 | SYK | TEC | TYK2 | ULK3 | YES1 | ZAK | ZAP70 | CDK4 | CDK7 | CDK9

CC(C)(C)c1cc(C=C(C#N)C#N)cc(Br)c1O (2.5 µM)
0: ROR2 | RPS6KA1 | SPHK1 | SRC | STK24 | STK38 | SYK | TEC | TYK2 | ULK3 | YES1 | ZAK | ZAP70 | CDK4 | CDK7 | CDK9

C/C=C(/C)C(=O)O[C@H]1[C@@H]2[C@H](C)C(=O)O[C@@H]2C[C@@H](C)[C@@H]2C=CC(=O)[C@]21C [Brevilin A] (2.5 µM)
0: ROR2 | RPS6KA1 | SPHK1 | SRC | STK24 | STK38 | SYK | TEC | TYK2 | ULK3 | YES1 | ZAK | ZAP70 | CDK4 | CDK7 | CDK9

CC(=O)OC(C)(C)/C=C/C(=O)[C@](C)(O)[C@H]1[C@H](O)C[C@@]2(C)[C@@H]3CC=C4[C@@H](C=C(O)C(=O)C4(C)C)[C@]3(C)C(=O)C[C@]12C [Cucurbitacin E] (2.5 µM)
0: ROR2 | RPS6KA1 | SPHK1 | SRC | STK24 | STK38 | SYK | ULK3 | ZAK | ZAP70 | CDK4 | CDK7
1: TEC | YES1 | CDK9
4: TYK2

COc1ccc2c(c1OC)C(OC)N(C)c1c-2ccc2cc3c(cc12)OCO3 (configuration not stated) [Angoline] (10 µM)
0: ROR2 | RPS6KA1 | SPHK1 | SRC | STK24 | STK38 | SYK | TEC | TYK2 | ULK3 | YES1 | ZAK | ZAP70 | CDK4 | CDK7 | CDK9

C[C@H]1CC[C@]2(NC1)O[C@H]1C[C@H]3[C@@H]4CC[C@H]5C[C@@H](O)CC[C@]5(C)[C@H]4CC[C@]3(C)[C@H]1[C@@H]2C [Tomatidine (hydrochloride)] (10 µM)
0: ROR2 | RPS6KA1 | SPHK1 | SRC | STK24 | STK38 | SYK | TEC | TYK2 | ULK3 | YES1 | ZAK | ZAP70 | CDK4 | CDK7 | CDK9

CC(=O)O[C@H]1[C@H]2[C@@H](OC(=O)Cc3ccccc3)[C@@H](C)C[C@]2(OC(C)=O)C(=O)/C(C)=C/[C@@H]2[C@H](CC[C@@]13CO3)C2(C)C [Euphorbiasteroid] (10 µM)
0: ROR2 | RPS6KA1 | SRC | STK24 | STK38 | SYK | TEC | TYK2 | ULK3 | YES1 | ZAK | ZAP70 | CDK4 | CDK7 | CDK9
1: SPHK1

C/C(O)=C(\C#N)C(=O)Nc1cc(Br)ccc1Br (10 µM)
0: ROR2 | RPS6KA1 | SPHK1 | SRC | STK24 | STK38 | SYK | TEC | TYK2 | ULK3 | YES1 | ZAK | ZAP70 | CDK4 | CDK7 | CDK9

CN(C)C(=O)c1ccc(Cn2c(C(=O)O)cc3c(Br)cc(Sc4ccc(Cl)c(Cl)c4)cc32)cc1 [Rheb inhibitor NR1] (10 µM)
0: ROR2 | RPS6KA1 | SPHK1 | SRC | STK24 | STK38 | SYK | TEC | TYK2 | ULK3 | YES1 | ZAK | ZAP70 | CDK4 | CDK7 | CDK9

C=CC(=O)N[C@H]1C=C(C)c2c(-c3cnc4ccccc4c3)c3c(N)ncnc3n2C1 (10 µM)
2: TEC
0: ROR2 | RPS6KA1 | SPHK1 | SRC | STK24 | STK38 | SYK | TYK2 | ULK3 | YES1 | ZAK | ZAP70 | CDK4 | CDK7 | CDK9

Cc1n[nH]cc1-c1cc2nc([C@@H]3CC4CCN3CC4)[nH]c(=O)c2s1 [Simurosertib] (2.5 µM)
0: ROR2 | RPS6KA1 | SPHK1 | SRC | STK24 | STK38 | SYK | TEC | TYK2 | ULK3 | YES1 | ZAK | ZAP70 | CDK4 | CDK7 | CDK9

C=CC(=O)Nc1ccc2[nH]c(=O)n(C3CCN(Cc4ccc(-c5nc6cc[nH]c(=O)c6cc5-c5ccccc5)cc4)CC3)c2c1 [Borussertib] (10 µM)
1: TYK2
0: ROR2 | RPS6KA1 | SPHK1 | SRC | STK24 | STK38 | SYK | TEC | ULK3 | YES1 | ZAK | ZAP70 | CDK4 | CDK7 | CDK9

CCN1CCN(C(=O)Cc2ccc(Nc3ncc(F)c(Nc4ccc(C(=O)Nc5ccccc5Cl)cc4)n3)cc2)CC1 (2.5 µM)
0: ROR2 | RPS6KA1 | SPHK1 | SRC | STK24 | STK38 | SYK | TEC | TYK2 | ULK3 | YES1 | ZAK | ZAP70 | CDK4 | CDK7 | CDK9

O=C(O)c1sc2cc(Cl)ccc2c1Cl (10 µM)
0: ROR2 | RPS6KA1 | SPHK1 | SRC | STK24 | STK38 | SYK | TEC | TYK2 | ULK3 | YES1 | ZAK | ZAP70 | CDK4 | CDK7 | CDK9

O=c1cc(O)c2ccccc2o1 [4-Hydroxycoumarin] (10 µM)
0: ROR2 | RPS6KA1 | SPHK1 | SRC | STK24 | STK38 | SYK | TEC | TYK2 | ULK3 | YES1 | ZAK | ZAP70 | CDK4 | CDK7 | CDK9

C[C@H](Nc1ncnc2[nH]cnc12)c1nc2ccc(F)cc2c(=O)n1-c1ccccc1 [Acalisib] (10 µM)
0: ROR2 | RPS6KA1 | SPHK1 | SRC | STK24 | STK38 | SYK | TEC | TYK2 | ULK3 | YES1 | ZAK | ZAP70 | CDK4 | CDK7 | CDK9

O=C(O)c1nn(Cc2ccc(Cl)cc2Cl)c2ccccc12 [Lonidamine] (10 µM)
0: ROR2 | RPS6KA1 | SPHK1 | SRC | STK24 | STK38 | SYK | TEC | TYK2 | ULK3 | YES1 | ZAK | ZAP70 | CDK4 | CDK7 | CDK9

C[C@H]1CC[C@]2(NC1)O[C@H]1C[C@H]3[C@@H]4CC[C@H]5C[C@@H](O[C@@H]6O[C@H](CO)[C@H](O[C@@H]7O[C@H](CO)[C@@H](O)[C@H](O[C@@H]8OC[C@@H](O)[C@H](O)[C@H]8O)[C@H]7O[C@@H]7O[C@H](CO)[C@@H](O)[C@H](O)[C@H]7O)[C@H](O)[C@H]6O)CC[C@]5(C)[C@H]4CC[C@]3(C)[C@H]1[C@@H]2C [Tomatine] (2.5 µM)
3: SYK | CDK7
0: ROR2 | RPS6KA1 | SPHK1 | SRC | STK24 | TEC | ULK3 | ZAK | ZAP70 | CDK4
4: TYK2 | YES1
1: STK38 | CDK9

C=C[C@H]1CN2CC[C@]3(C(=O)Nc4ccccc43)[C@@H]2C[C@@H]1/C(=C\OC)C(=O)OC [Corynoxeine] (2 µM)
0: ROR2 | RPS6KA1 | SPHK1 | SRC | STK24 | STK38 | SYK | TEC | TYK2 | ULK3 | YES1 | ZAK | ZAP70 | CDK4 | CDK7 | CDK9

O=C(N[C@@H](COc1ccc2[nH]c(=O)[nH]c2c1)c1ccccc1)c1cccn(Cc2ccc(F)c(F)c2)c1=O (2.5 µM)
0: ROR2 | RPS6KA1 | SPHK1 | SRC | STK24 | STK38 | SYK | TEC | TYK2 | ULK3 | YES1 | ZAK | ZAP70 | CDK4 | CDK7 | CDK9

CCCS(=O)(=O)Nc1ccc(F)c(-n2cc(-c3cncnc3)c3nc(N(C)C4CCN(CC)CC4)ccc32)c1F (2 µM)
0: ROR2 | RPS6KA1 | SPHK1 | SRC | STK24 | STK38 | SYK | TEC | TYK2 | ULK3 | YES1 | ZAK | ZAP70 | CDK4 | CDK7 | CDK9

CC1C(=O)OC2C(O)C34C5OC(=O)C3(OC3OC(=O)C(O)C34C(C(C)(C)C)C5O)C12O (configuration not stated) [Ginkgolide C] (10 µM)
0: ROR2 | RPS6KA1 | SPHK1 | SRC | STK24 | STK38 | SYK | TEC | TYK2 | ULK3 | YES1 | ZAK | ZAP70 | CDK4 | CDK7 | CDK9

O=c1[nH]c2ccccc2n1C1CCN(CCCC(c2ccc(F)cc2)c2ccc(F)cc2)CC1 [Pimozide] (2.5 µM)
0: ROR2 | RPS6KA1 | SPHK1 | SRC | STK24 | STK38 | SYK | TEC | TYK2 | ULK3 | YES1 | ZAK | ZAP70 | CDK4 | CDK7 | CDK9
